Assays:
[1] = Sensory evaluation of the unpleasant taste of ibuprofen (irritation and bitterness); sample equivalent to 200 mg ibuprofen held in the mouth for 3 minutes; design: key to unpleasant taste of ibuprofen (irritation and bitterness), sensory evaluation: AA: No unpleasant taste was detected.; An unpleasant taste was just about detected, but it was not so bothersome.; B: There was an unpleasant taste and it was very bothersome.; C: It was unacceptably unpleasant; details: for unpleasant taste of ibuprofen (irritation and bitterness), sensory evaluation: equivalent to 200 mg ibuprofen, relative to reference example 1
Method: Immediately after the mixing, a sample equivalent to 200 mg ibuprofen was placed in the mouth, held in the mouth for 3 minutes without swallowing, and subjected to sensory evaluation, over time, of the unpleasant taste of ibuprofen (irritation and bitterness). For the sample used in reference example 1 (ibuprofen passed completely through a 30 mesh) shown in Table 1, sensory evaluation was performed in accordance with the operations described above using the evaluation criteria below, and the evaluations of example 1 and comparative example 1 were subjected to relative evaluation based on the evaluation result for the reference example 1 sample.
(§1) Said samples for examples 2-7 and comparative examples 2-4 were subjected to sensory evaluation of the unpleasant taste of ibuprofen (irritation and bitterness) in accordance with the operations and evaluation criteria used in test example 1 (relative evaluation based on the evaluation result for the reference example 1 sample).
as §1, with “Granules equivalent to 200 mg ibuprofen” for “Said samples for examples 2-7 and comparative examples 2-4”
Sensory evaluation the same as in test example 3 was conducted with the exception that the composition of the granules was modified to the compositions shown in Table 4 and that the granules were evaluated only after having been held in the mouth for 30 seconds and after having been held in the mouth for 1 minute.

[2] = Sensory evaluation of the unpleasant taste of ibuprofen; amount equivalent to 400 mg ibuprofen held in the mouth; design: key: AA: No unpleasant taste was detected.; An unpleasant taste was just about detected, but it was not so bothersome.; B: There was an unpleasant taste and it was very bothersome.; C: It was unacceptably unpleasant; details: relative to reference example 4
Method: Granules of example 17 were placed in the mouth, held in the mouth for 3 minutes without swallowing, and subjected to sensory evaluation, over time, of the unpleasant taste of ibuprofen (irritation and bitterness). For the reference example 4 sample (ibuprofen passed completely through a 30 mesh) shown in Table 7, sensory evaluation of an amount equivalent to 400 mg ibuprofen was performed in accordance with the operations as described above, using the following evaluation criteria, and the evaluations for example 17 were subjected to relative evaluation based on the evaluation result for the reference example 4 sample.

Compound	unpleasant taste after drying treatment compared with the substance not subjected to the drying treatment ([1]; drying treatment 65° C. for 15 hours, Tables 1 and 2 compared)	unpleasant taste of ibuprofen (irritation and bitterness), sensory evaluation ([1]; held in the mouth 10 seconds)	unpleasant taste of ibuprofen (irritation and bitterness), sensory evaluation ([1]; held in the mouth 20 seconds)	unpleasant taste of ibuprofen (irritation and bitterness), sensory evaluation ([1]; held in the mouth 30 seconds)	unpleasant taste of ibuprofen (irritation and bitterness), sensory evaluation ([1]; held in the mouth 45 seconds)	unpleasant taste of ibuprofen (irritation and bitterness), sensory evaluation ([1]; held in the mouth 1 minute)	unpleasant taste of ibuprofen (irritation and bitterness), sensory evaluation ([1]; held in the mouth 2 minutes)	unpleasant taste of ibuprofen (irritation and bitterness), sensory evaluation ([1]; held in the mouth 3 minutes)	unpleasant taste, in words ([1]; after having been held in the mouth for 30 seconds)	unpleasant taste of ibuprofen (irritation and bitterness), sensory evaluation ([2]; held in the mouth 10 seconds)	unpleasant taste of ibuprofen (irritation and bitterness), sensory evaluation ([2]; held in the mouth 20 seconds)	unpleasant taste of ibuprofen (irritation and bitterness), sensory evaluation ([2]; held in the mouth 30 seconds)	unpleasant taste of ibuprofen (irritation and bitterness), sensory evaluation ([2]; held in the mouth 45 seconds)	unpleasant taste of ibuprofen (irritation and bitterness), sensory evaluation ([2]; held in the mouth 1 minute)	unpleasant taste of ibuprofen (irritation and bitterness), sensory evaluation ([2]; held in the mouth 2 minutes)	unpleasant taste of ibuprofen (irritation and bitterness), sensory evaluation ([2]; held in the mouth 3 minutes)
CC(C)Cc1ccc(C(C)C(=O)O)cc1 (centres unmarked) [compound 2, 2-(4-isobutylphenyl)propionic acid]	the unpleasant taste was no lower	AA	A	C	C	C	C	C								
CC(C)Cc1ccc(C(C)C(=O)O)cc1 (centres unmarked) [compound 1, 2-(4-isobutylphenyl)propionic acid]		AA	A	B	C	C	C	C	exhibited a distinctly unpleasant taste							
CC(C)Cc1ccc(C(C)C(=O)O)cc1 (centres unmarked) [compound 4, 2-(4-isobutylphenyl)propionic acid]										AA	A	C	C	C	C	C

— patent US20210369618A1, “IBUPROFEN-CONTAINING ORAL PHARMACEUTICAL FORMULATION” (SSP CO., LTD., priority 2018, published 2021)
